Measured values: paper PMC5740495
Results are given in words; binding and its absence hold for the method and conditions named. In cells and extracts the contact can be indirect. A yes stands for co-enrichment or nearness to the bait. Other partners may have been found. One block for each molecule: values may come before it.

Amino acid sequences for entries named in this document (tags omitted).
UniProt P52294: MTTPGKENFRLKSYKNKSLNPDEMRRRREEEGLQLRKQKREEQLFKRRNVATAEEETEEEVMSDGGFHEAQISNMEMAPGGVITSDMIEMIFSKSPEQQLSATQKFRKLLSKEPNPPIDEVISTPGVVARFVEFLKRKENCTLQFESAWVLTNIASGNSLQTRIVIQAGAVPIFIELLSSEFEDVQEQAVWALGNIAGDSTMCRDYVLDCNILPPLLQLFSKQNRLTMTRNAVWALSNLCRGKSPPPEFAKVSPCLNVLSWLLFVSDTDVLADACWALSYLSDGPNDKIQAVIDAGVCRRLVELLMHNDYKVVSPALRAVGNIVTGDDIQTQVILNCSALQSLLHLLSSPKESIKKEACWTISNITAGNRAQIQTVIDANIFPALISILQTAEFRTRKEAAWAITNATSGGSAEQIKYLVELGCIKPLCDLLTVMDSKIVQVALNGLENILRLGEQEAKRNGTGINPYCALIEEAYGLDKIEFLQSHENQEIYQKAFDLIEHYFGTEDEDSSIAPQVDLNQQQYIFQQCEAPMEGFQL
UniProt P55060: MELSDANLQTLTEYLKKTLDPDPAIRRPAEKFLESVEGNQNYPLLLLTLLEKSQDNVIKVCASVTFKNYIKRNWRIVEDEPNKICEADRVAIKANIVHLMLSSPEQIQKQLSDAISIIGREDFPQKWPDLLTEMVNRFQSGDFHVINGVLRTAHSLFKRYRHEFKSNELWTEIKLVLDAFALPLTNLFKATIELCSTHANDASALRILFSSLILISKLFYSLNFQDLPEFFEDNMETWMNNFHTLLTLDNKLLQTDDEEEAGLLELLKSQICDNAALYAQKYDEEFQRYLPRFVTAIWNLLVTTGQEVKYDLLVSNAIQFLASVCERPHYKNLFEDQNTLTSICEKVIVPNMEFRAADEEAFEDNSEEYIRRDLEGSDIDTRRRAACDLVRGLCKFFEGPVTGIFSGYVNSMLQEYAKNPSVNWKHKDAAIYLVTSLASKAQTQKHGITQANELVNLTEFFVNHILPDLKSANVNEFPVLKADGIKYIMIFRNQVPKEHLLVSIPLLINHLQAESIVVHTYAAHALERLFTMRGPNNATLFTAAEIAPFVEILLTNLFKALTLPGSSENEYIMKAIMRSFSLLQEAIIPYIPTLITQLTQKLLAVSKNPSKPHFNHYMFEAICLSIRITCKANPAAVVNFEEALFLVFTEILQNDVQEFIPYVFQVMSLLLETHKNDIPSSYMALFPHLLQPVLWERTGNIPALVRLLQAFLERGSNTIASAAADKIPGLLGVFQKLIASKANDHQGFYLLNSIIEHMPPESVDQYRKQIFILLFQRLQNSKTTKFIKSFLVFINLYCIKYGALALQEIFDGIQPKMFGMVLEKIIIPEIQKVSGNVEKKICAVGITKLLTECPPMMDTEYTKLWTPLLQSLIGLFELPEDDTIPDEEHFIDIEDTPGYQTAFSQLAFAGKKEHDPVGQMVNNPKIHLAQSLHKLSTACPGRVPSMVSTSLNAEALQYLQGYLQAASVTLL
UniProt P49792: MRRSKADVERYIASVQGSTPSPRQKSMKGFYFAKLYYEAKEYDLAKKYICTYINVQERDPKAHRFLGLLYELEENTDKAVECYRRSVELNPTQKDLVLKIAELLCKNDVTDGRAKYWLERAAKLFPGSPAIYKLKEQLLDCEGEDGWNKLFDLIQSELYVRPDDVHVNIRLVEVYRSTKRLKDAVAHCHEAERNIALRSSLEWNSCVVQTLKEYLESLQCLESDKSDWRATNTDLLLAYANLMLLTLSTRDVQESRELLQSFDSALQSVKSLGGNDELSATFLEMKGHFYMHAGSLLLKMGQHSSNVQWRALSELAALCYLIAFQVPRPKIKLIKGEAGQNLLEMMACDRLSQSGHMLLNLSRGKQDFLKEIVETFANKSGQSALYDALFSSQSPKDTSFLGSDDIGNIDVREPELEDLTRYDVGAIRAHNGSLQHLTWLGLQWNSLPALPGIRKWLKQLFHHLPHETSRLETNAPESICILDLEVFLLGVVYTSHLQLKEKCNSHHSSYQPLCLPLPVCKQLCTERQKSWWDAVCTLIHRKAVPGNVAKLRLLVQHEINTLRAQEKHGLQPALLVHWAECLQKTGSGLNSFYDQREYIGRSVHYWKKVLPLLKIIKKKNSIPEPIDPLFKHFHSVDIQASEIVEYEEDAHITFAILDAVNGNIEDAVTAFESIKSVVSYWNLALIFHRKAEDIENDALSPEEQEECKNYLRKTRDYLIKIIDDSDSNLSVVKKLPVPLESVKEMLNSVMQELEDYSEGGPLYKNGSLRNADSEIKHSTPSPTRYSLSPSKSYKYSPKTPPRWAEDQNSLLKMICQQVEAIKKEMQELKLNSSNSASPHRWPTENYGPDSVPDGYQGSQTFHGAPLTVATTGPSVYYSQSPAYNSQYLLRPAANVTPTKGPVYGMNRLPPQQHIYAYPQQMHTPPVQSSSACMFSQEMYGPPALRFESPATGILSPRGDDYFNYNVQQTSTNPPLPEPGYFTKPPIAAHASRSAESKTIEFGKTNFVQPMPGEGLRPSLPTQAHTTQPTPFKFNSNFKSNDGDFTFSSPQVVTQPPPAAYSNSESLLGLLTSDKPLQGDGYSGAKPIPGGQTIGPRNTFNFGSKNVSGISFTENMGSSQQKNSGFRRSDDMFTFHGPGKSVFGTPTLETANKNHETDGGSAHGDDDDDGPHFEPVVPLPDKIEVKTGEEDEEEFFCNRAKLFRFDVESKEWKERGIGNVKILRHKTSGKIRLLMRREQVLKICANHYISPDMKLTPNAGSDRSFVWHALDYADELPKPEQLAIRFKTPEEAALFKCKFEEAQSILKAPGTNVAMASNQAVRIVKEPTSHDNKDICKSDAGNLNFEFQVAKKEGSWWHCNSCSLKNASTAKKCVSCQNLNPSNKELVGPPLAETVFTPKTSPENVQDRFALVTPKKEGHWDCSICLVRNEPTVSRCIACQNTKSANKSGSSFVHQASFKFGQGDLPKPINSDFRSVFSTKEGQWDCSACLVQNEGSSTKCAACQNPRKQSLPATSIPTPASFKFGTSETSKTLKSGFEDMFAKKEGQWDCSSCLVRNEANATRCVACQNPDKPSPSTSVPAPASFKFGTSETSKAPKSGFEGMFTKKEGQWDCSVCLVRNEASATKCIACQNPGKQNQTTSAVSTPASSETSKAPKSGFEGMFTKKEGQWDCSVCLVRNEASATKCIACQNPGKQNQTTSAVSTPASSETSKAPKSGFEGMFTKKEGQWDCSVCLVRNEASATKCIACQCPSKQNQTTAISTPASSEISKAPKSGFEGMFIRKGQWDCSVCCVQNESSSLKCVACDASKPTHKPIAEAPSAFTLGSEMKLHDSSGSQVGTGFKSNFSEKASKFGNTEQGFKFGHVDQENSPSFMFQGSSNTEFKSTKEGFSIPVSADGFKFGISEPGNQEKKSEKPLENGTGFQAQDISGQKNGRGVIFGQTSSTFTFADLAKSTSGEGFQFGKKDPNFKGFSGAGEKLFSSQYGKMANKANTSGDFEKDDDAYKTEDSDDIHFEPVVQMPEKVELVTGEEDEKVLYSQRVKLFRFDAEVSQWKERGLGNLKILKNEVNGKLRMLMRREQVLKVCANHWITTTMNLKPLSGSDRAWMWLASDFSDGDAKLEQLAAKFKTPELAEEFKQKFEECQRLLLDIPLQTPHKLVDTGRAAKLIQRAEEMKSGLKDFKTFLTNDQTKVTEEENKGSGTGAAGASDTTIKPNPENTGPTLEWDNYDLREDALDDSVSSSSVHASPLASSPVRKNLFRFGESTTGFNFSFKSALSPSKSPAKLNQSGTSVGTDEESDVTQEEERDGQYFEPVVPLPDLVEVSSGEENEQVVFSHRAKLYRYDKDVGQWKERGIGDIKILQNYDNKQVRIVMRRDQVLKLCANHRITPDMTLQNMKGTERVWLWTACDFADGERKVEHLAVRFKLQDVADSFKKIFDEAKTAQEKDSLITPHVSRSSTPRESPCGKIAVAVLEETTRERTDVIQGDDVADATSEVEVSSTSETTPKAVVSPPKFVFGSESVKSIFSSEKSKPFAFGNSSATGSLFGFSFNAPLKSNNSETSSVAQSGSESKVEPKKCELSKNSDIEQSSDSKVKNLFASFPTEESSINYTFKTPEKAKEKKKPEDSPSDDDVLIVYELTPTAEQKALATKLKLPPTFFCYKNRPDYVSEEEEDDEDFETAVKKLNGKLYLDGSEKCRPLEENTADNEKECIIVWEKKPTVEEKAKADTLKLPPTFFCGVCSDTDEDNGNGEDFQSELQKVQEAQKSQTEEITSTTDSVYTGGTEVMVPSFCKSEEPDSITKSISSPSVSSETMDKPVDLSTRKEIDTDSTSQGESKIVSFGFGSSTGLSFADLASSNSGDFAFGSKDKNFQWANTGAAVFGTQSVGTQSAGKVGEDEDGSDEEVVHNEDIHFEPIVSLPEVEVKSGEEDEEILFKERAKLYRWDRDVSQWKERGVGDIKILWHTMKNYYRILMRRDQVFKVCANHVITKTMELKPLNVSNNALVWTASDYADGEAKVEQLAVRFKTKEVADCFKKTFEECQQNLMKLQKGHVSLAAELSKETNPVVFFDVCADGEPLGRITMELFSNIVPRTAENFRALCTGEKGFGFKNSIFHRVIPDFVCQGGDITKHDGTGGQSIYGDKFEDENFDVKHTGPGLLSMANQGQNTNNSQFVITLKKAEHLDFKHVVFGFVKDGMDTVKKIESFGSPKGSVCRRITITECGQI
UniProt Q15596: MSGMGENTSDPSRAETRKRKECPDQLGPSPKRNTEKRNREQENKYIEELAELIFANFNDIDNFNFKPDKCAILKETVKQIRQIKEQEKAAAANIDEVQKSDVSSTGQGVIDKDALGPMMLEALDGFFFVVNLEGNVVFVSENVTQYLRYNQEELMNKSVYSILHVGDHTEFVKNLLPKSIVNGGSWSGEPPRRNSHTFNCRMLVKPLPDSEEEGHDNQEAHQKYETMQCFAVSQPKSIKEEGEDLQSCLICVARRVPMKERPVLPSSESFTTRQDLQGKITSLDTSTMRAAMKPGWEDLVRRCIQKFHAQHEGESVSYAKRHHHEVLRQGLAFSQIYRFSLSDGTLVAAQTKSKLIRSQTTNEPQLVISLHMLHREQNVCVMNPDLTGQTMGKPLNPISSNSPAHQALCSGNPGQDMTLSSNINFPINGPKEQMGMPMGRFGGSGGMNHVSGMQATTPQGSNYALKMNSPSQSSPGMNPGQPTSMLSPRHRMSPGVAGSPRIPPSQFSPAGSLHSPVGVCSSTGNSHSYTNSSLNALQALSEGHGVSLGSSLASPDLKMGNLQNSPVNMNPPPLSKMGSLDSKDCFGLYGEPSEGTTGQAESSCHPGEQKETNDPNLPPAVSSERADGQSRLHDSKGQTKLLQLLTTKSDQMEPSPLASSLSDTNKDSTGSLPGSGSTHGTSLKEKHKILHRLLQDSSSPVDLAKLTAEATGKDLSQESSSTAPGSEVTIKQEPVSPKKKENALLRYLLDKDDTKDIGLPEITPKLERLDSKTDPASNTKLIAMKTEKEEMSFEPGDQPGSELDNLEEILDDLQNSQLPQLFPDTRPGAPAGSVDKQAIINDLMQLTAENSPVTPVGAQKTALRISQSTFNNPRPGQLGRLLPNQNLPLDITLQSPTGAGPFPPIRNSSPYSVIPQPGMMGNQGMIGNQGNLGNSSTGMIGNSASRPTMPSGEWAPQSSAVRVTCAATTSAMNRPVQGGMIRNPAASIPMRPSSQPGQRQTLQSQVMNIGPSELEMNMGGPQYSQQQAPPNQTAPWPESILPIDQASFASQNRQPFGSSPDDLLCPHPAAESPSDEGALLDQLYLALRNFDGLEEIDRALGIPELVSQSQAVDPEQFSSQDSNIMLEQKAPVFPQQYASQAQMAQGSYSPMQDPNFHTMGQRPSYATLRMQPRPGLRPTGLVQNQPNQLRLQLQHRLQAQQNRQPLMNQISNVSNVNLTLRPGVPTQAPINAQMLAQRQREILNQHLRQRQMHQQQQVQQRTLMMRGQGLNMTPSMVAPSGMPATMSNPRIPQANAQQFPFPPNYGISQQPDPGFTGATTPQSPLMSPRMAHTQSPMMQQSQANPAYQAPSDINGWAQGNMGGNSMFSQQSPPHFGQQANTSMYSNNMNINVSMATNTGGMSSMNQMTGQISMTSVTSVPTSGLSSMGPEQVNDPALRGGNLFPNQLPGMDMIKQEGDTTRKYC

Experiments:
Assay in all cases: proximity labelling; BioID, large-scale, direct identification of biotinylated peptides: same NTR-BirA* lines; biotinylated peptides eluted from streptavidin beads with 80% ACN, 20% TFA after the on-bead digest, MS
IPO4 (human) = IPO4 (human) (UniProt Q8TEX9)
IMA6 (human) = IMA6 (human) (UniProt O15131)
IMA5 (human) = IMA5 (human) (UniProt P52294)
[1] = target: T1, importin 13 (IPO13) (human) (UniProt O94829)
T1 sequence: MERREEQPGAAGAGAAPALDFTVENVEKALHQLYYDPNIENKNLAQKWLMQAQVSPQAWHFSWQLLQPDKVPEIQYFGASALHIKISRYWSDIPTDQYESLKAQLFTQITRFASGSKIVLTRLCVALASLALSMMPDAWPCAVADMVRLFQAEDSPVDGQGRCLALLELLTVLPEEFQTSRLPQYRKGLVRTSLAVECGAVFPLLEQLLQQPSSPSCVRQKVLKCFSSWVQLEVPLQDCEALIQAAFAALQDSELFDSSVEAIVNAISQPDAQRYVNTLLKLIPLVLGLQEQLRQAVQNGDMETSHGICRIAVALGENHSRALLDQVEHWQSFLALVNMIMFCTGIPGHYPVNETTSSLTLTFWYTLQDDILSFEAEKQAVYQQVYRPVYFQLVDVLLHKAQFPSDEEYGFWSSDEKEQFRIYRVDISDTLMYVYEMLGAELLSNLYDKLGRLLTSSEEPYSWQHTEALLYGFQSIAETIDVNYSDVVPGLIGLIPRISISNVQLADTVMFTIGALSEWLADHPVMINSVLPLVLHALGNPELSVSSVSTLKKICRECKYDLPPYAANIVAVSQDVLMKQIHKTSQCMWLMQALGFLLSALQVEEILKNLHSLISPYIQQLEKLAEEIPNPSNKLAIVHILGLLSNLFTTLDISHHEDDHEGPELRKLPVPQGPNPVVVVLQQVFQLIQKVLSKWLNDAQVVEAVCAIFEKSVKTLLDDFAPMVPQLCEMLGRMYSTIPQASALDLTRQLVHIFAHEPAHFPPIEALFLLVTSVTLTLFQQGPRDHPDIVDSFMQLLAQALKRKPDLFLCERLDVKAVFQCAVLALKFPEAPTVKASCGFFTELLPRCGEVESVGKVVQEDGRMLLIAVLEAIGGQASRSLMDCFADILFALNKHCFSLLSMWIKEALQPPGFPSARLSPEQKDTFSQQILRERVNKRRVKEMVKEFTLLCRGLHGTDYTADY

IPO5 (human) = IPO5 (human) (UniProt O00410)
IPO11 (human) = target: T2, IPO11 (human) (UniProt Q9UI26)
T2 sequence: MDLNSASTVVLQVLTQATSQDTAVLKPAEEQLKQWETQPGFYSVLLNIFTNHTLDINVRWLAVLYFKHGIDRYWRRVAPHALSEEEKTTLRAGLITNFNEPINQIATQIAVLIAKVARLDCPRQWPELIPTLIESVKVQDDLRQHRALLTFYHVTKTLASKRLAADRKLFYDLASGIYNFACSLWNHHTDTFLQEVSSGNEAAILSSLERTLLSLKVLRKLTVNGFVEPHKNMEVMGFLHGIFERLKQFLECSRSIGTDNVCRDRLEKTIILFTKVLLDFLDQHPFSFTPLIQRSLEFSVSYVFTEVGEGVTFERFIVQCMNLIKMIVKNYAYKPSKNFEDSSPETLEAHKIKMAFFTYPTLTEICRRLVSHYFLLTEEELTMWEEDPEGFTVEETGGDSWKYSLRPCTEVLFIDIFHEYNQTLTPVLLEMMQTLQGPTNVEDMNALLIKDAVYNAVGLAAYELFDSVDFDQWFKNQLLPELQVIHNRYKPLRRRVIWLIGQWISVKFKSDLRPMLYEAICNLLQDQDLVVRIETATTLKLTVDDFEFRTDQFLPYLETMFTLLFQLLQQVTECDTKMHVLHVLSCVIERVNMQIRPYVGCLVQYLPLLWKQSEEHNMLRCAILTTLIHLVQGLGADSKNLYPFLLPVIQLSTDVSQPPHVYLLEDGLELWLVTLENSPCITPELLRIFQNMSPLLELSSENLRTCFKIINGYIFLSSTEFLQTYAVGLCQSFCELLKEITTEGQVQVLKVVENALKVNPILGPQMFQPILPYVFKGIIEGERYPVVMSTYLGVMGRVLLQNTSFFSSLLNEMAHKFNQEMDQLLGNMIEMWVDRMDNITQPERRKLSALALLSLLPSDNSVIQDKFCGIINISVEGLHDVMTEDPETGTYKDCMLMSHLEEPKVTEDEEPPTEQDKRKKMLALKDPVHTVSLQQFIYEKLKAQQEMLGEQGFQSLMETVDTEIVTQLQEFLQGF

TNPO2 (human) = target: T3, TNPO2 (human) (UniProt O14787)
T3 sequence: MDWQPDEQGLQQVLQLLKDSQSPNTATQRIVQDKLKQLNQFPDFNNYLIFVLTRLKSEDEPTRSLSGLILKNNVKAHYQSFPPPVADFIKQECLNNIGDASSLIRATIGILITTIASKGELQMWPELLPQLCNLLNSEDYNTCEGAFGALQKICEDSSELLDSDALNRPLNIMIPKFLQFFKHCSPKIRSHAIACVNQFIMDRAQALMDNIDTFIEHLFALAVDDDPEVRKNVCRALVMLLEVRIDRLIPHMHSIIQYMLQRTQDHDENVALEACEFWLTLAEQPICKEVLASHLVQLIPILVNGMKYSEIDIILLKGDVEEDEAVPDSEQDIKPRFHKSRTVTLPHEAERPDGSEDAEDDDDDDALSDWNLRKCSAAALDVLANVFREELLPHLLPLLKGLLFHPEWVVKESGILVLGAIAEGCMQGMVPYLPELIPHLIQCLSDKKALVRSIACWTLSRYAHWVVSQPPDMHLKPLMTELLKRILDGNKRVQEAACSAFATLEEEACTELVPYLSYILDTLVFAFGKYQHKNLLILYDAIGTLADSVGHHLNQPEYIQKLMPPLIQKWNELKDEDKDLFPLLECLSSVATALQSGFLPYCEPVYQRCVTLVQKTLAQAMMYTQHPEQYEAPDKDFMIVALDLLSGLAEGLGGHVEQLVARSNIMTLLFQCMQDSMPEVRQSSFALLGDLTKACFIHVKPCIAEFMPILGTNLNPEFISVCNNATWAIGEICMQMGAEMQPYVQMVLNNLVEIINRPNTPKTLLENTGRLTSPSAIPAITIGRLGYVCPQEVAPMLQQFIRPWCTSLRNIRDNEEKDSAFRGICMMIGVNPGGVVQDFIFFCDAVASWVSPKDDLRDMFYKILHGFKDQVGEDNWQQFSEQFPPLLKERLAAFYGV

TNPO1 (human) = TNPO1 (human) (UniProt Q92973)
XPO2 (human) = XPO2 (human) (UniProt P55060)

binding (IPO4 (human)): binds
binding (IMA6 (human)): binds weakly
binding (IMA5 (human)): binds weakly
binding [1]: binds
binding (IPO5 (human)): binds
binding (IPO11 (human)): binds
binding (TNPO2 (human)): binds weakly
Molecule: NUP358/RANBP2 (from UniProt P49792 1-3224)

binding (TNPO1 (human)): binds
Molecule: SRC2 (from UniProt Q15596 1-1464)

binding (IPO11 (human)): binds
B1: BZW2 (protein, UniProt Q9Y6E2 1-419)
chain: MNKHQKPVLTGQRFKTRKRDEKEKFEPTVFRDTLVQGLNEAGDDLEAVAKFLDSTGSRLDYRRYADTLFDILVAGSMLAPGGTRIDDGDKTKMTNHCVFSANEDHETIRNYAQVFNKLIRRYKYLEKAFEDEMKKLLLFLKAFSETEQTKLAMLSGILLGNGTLPATILTSLFTDSLVKEGIAASFAVKLFKAWMAEKDANSVTSSLRKANLDKRLLELFPVNRQSVDHFAKYFTDAGLKELSDFLRVQQSLGTRKELQKELQERLSQECPIKEVVLYVKEEMKRNDLPETAVIGLLWTCIMNAVEWNKKEELVAEQALKHLKQYAPLLAVFSSQGQSELILLQKVQEYCYDNIHFMKAFQKIVVLFYKADVLSEEAILKWYKEAHVAKGKSVFLDQMKKFVEWLQNAEEESESEGEEN

binding (XPO2 (human)): binds
B2: Heterogeneous nuclear ribonucleoprotein M (protein, UniProt P52272 1-730)
chain: MAAGVEAAAEVAATEIKMEEESGAPGVPSGNGAPGPKGEGERPAQNEKRKEKNIKRGGNRFEPYANPTKRYRAFITNIPFDVKWQSLKDLVKEKVGEVTYVELLMDAEGKSRGCAVVEFKMEESMKKAAEVLNKHSLSGRPLKVKEDPDGEHARRAMQKVMATTGGMGMGPGGPGMITIPPSILNNPNIPNEIIHALQAGRLGSTVFVANLDYKVGWKKLKEVFSMAGVVVRADILEDKDGKSRGIGTVTFEQSIEAVQAISMFNGQLLFDRPMHVKMDERALPKGDFFPPERPQQLPHGLGGIGMGLGPGGQPIDANHLNKGIGMGNIGPAGMGMEGIGFGINKMGGMEGPFGGGMENMGRFGSGMNMGRINEILSNALKRGEIIAKQGGGGGGGSVPGIERMGPGIDRLGGAGMERMGAGLGHGMDRVGSEIERMGLVMDRMGSVERMGSGIERMGPLGLDHMASSIERMGQTMERIGSGVERMGAGMGFGLERMAAPIDRVGQTIERMGSGVERMGPAIERMGLSMERMVPAGMGAGLERMGPVMDRMATGLERMGANNLERMGLERMGANSLERMGLERMGANSLERMGPAMGPALGAGIERMGLAMGGGGGASFDRAIEMERGNFGGSFAGSFGGAGGHAPGVARKACQIFVRNLPFDFTWKMLKDKFNECGHVLYADIKMENGKSKGCGVVKFESPEVAERACRMMNGMKLSGREIDVRIDRNA

binding [1]: binds
B3: SATB1 (protein, UniProt Q01826 1-763)
chain: MDHLNEATQGKEHSEMSNNVSDPKGPPAKIARLEQNGSPLGRGRLGSTGAKMQGVPLKHSGHLMKTNLRKGTMLPVFCVVEHYENAIEYDCKEEHAEFVLVRKDMLFNQLIEMALLSLGYSHSSAAQAKGLIQVGKWNPVPLSYVTDAPDATVADMLQDVYHVVTLKIQLHSCPKLEDLPPEQWSHTTVRNALKDLLKDMNQSSLAKECPLSQSMISSIVNSTYYANVSAAKCQEFGRWYKHFKKTKDMMVEMDSLSELSQQGANHVNFGQQPVPGNTAEQPPSPAQLSHGSQPSVRTPLPNLHPGLVSTPISPQLVNQQLVMAQLLNQQYAVNRLLAQQSLNQQYLNHPPPVSRSMNKPLEQQVSTNTEVSSEIYQWVRDELKRAGISQAVFARVAFNRTQGLLSEILRKEEDPKTASQSLLVNLRAMQNFLQLPEAERDRIYQDERERSLNAASAMGPAPLISTPPSRPPQVKTATIATERNGKPENNTMNINASIYDEIQQEMKRAKVSQALFAKVAATKSQGWLCELLRWKEDPSPENRTLWENLSMIRRFLSLPQPERDAIYEQESNAVHHHGDRPPHIIHVPAEQIQQQQQQQQQQQQQQQAPPPPQPQQQPQTGPRLPPRQPTVASPAESDEENRQKTRPRTKISVEALGILQSFIQDVGLYPDEEAIQTLSAQLDLPKYTIIKFFQNQRYYLKHHGKLKDNSGLEVDVAEYKEEELLKDLEESVQDKNTNTLFSVKLEEELSVEGNTDINTDLKD

binding (IPO11 (human)): binds
B4: BZW1 (protein, UniProt Q7L1Q6 1-419)
chain: MNNQKQQKPTLSGQRFKTRKRDEKERFDPTQFQDCIIQGLTETGTDLEAVAKFLDASGAKLDYRRYAETLFDILVAGGMLAPGGTLADDMMRTDVCVFAAQEDLETMQAFAQVFNKLIRRYKYLEKGFEDEVKKLLLFLKGFSESERNKLAMLTGVLLANGTLNASILNSLYNENLVKEGVSAAFAVKLFKSWINEKDINAVAASLRKVSMDNRLMELFPANKQSVEHFTKYFTEAGLKELSEYVRNQQTIGARKELQKELQEQMSRGDPFKDIILYVKEEMKKNNIPEPVVIGIVWSSVMSTVEWNKKEELVAEQAIKHLKQYSPLLAAFTTQGQSELTLLLKIQEYCYDNIHFMKAFQKIVVLFYKAEVLSEEPILKWYKDAHVAKGKSVFLEQMKKFVEWLKNAEEESESEAEEGD
